Laboratory results reported in patent US20250176599A1, “FLAVOR COMPOSITION AND FOOD AND BEVERAGE” (TAKASAGO INTERNATIONAL CORPORATION, priority 2021, published 2025).

Legend:
[1] = Sensory evaluation of aqueous solution IV containing 1,5-octadien-3-one 100 ppt: off-flavor intensity and masking component intensity; conditions: aqueous solution IV, 1,5-octadien-3-one 100 ppt, average score 0-4
Procedure: (§1) In ion-exchanged water, each degradation component was added to achieve the concentrations listed in Table 1, and aqueous solutions I to VI containing these degradation components were prepared.
(§2) For the aforementioned aqueous solutions containing degradation components, nootkatone was added at the concentrations listed in Table 2 to confirm the intensity of the off-flavor (masking effect) in each sample and the intensity of the masking component itself (the impact on the flavor of the food and/or beverage itself).
(§3) The test was conducted as follows. Eight experienced panelists were selected to conduct a sensory evaluation. The intensity of the off-flavor of the aqueous solution containing the degradation components derived from unsaturated fatty acids, without added masking components, was set as “Evaluation: 4.” The ion-exchanged water free of any degradation components was set as “Evaluation: 0.” The intensity of the off-flavor (masking effect) of each sample was then relatively evaluated according to the following evaluation criteria.
(§4) • Off-flavor is strongly sensed: 4 points • Off-flavor is sensed: 3 points • Off-flavor is slightly sensed: 2 points • Off-flavor is barely sensed: 1 point • Off-flavor is not sensed at all: 0 points
(§5) Also, the intensity of the masking components (impact on the flavor of the food and/or beverage itself) was absolutely evaluated according to the following evaluation criteria.
(§6) • Masking component is strongly sensed: 4 points • Masking component is sensed: 3 points • Masking component is slightly sensed: 2 points • Masking component is barely sensed: 1 point • Masking component is not sensed at all: 0 points

[2] = Sensory evaluation of aqueous solution V containing 1-octen-3-ol 10 ppb: off-flavor intensity and masking component intensity; conditions: average score 0-4
Procedure: as §1, §2, §3, §4, §5, §6

[3] = Sensory evaluation of aqueous solution I containing (E)-2-nonenal 1 ppb: off-flavor intensity and masking component intensity; conditions: average score 0-4
Procedure: as §1, §2, §3, §4, §5, §6

[4] = Sensory evaluation of aqueous solution II containing (E)-2-octenal 10 ppb: off-flavor intensity and masking component intensity; conditions: average score 0-4
Procedure: as §1, §2, §3, §4, §5, §6

In the case of O=C1CCCCCCCCCCCC(=O)OCCO1 [1,4-Dioxacycloheptadecan-5,17-Dione, 1,4-dioxacycloheptadecan-5,17-dione], the “Masking Component Intensity” value ([1]; 0.001 ppt added) is reported as 0.0 points, the “Masking Component Intensity” value ([1]; 0.01 ppt added) is reported as 0.0 points and the “Masking Component Intensity” value ([1]; 0.1 ppt added) is reported as 0.0 points. For the same molecule, the “Masking Component Intensity” value ([1]; 1 ppb added) was 1.3 points, the “Masking Component Intensity” value ([1]; 1 ppt added) was 0.3 points and the “Masking Component Intensity” value ([1]; 10 ppb added) was 2.0 points. The “Masking Component Intensity” value ([1]; 10 ppt added) was 0.5 points, the “Masking Component Intensity” value ([1]; 100 ppb added) was 3.8 points and the “Masking Component Intensity” value ([1]; 100 ppt added) was 1.0 points. The “Masking Component Intensity” value ([2]; 0.001 ppt added) was 0.0 points, the “Masking Component Intensity” value ([2]; 0.01 ppt added) was 0.1 points and the “Masking Component Intensity” value ([2]; 0.1 ppt added) was 0.3 points. The “Masking Component Intensity” value ([2]; 1 ppb added) was 1.9 points, the “Masking Component Intensity” value ([2]; 1 ppt added) was 0.6 points and the “Masking Component Intensity” value ([2]; 10 ppb added) was 3.0 points. The “Masking Component Intensity” value ([2]; 10 ppt added) was 0.9 points, the “Masking Component Intensity” value ([2]; 100 ppb added) was 3.9 points and the “Masking Component Intensity” value ([2]; 100 ppt added) was 1.5 points. For the same molecule, the “Masking Component Intensity” value ([3]; 0.001 ppt added) was 0.0 points, the “Masking Component Intensity” value ([3]; 0.01 ppt added) was 0.0 points and the “Masking Component Intensity” value ([3]; 0.1 ppt added) was 0.1 points. The “Masking Component Intensity” value ([3]; 1 ppb added) was 2.1 points, the “Masking Component Intensity” value ([3]; 1 ppt added) was 0.5 points and the “Masking Component Intensity” value ([3]; 10 ppb added) was 3.3 points. For the same molecule, the “Masking Component Intensity” value ([3]; 10 ppt added) was 1.0 points, the “Masking Component Intensity” value ([3]; 100 ppb added) was 4.0 points and the “Masking Component Intensity” value ([3]; 100 ppt added) was 1.8 points. The “Masking Component Intensity” value ([4]; 0.001 ppt added) was 0.0 points, the “Masking Component Intensity” value ([4]; 0.01 ppt added) was 0.0 points and the “Masking Component Intensity” value ([4]; 0.1 ppt added) was 0.3 points. The “Masking Component Intensity” value ([4]; 1 ppb added) was 2.1 points, the “Masking Component Intensity” value ([4]; 1 ppt added) was 0.5 points and the “Masking Component Intensity” value ([4]; 10 ppb added) was 2.8 points. For the same molecule, the “Masking Component Intensity” value ([4]; 10 ppt added) was 0.6 points, the “Masking Component Intensity” value ([4]; 100 ppb added) was 3.9 points and the “Masking Component Intensity” value ([4]; 100 ppt added) was 1.5 points.

With CCCC(=O)C(C)=O [2,3-Hexanedione, 2,3-hexanedione] the “Masking Component Intensity” value ([1]; 1 ppb added) was 0.1 points, the “Masking Component Intensity” value ([1]; 1 ppm added) was 3.1 points and the “Masking Component Intensity” value ([1]; 5 ppb added) was 0.4 points. For the same molecule, the “Masking Component Intensity” value ([1]; 5 ppm added) was 3.6 points, the “Masking Component Intensity” value ([1]; 10 ppb added) was 0.9 points and the “Masking Component Intensity” value ([1]; 10 ppm added) was 4.0 points. The “Masking Component Intensity” value ([1]; 50 ppb added) was 1.1 points, the “Masking Component Intensity” value ([1]; 100 ppb added) was 1.6 points and the “Masking Component Intensity” value ([1]; 500 ppb added) was 2.4 points. The “Masking Component Intensity” value ([2]; 1 ppb added) was 0.4 points, the “Masking Component Intensity” value ([2]; 1 ppm added) was 2.6 points and the “Masking Component Intensity” value ([2]; 5 ppb added) was 0.6 points. For the same molecule, the “Masking Component Intensity” value ([2]; 5 ppm added) was 3.5 points, the “Masking Component Intensity” value ([2]; 10 ppb added) was 1.3 points and the “Masking Component Intensity” value ([2]; 10 ppm added) was 3.9 points. The “Masking Component Intensity” value ([2]; 50 ppb added) was 1.9 points, the “Masking Component Intensity” value ([2]; 100 ppb added) was 2.1 points and the “Masking Component Intensity” value ([2]; 500 ppb added) was 2.6 points. The “Masking Component Intensity” value ([3]; 1 ppb added) was 0.4 points, the “Masking Component Intensity” value ([3]; 1 ppm added) was 3.3 points and the “Masking Component Intensity” value ([3]; 5 ppb added) was 0.8 points. The “Masking Component Intensity” value ([3]; 5 ppm added) was 3.5 points, the “Masking Component Intensity” value ([3]; 10 ppb added) was 1.3 points and the “Masking Component Intensity” value ([3]; 10 ppm added) was 3.8 points. For the same molecule, the “Masking Component Intensity” value ([3]; 50 ppb added) was 1.6 points, the “Masking Component Intensity” value ([3]; 100 ppb added) was 2.0 points and the “Masking Component Intensity” value ([3]; 500 ppb added) was 2.5 points. The “Masking Component Intensity” value ([4]; 1 ppb added) was 0.5 points, the “Masking Component Intensity” value ([4]; 1 ppm added) was 2.8 points and the “Masking Component Intensity” value ([4]; 5 ppb added) was 1.0 points. The “Masking Component Intensity” value ([4]; 5 ppm added) was 3.5 points, the “Masking Component Intensity” value ([4]; 10 ppb added) was 1.3 points and the “Masking Component Intensity” value ([4]; 10 ppm added) was 3.8 points. The “Masking Component Intensity” value ([4]; 50 ppb added) was 1.8 points, the “Masking Component Intensity” value ([4]; 100 ppb added) was 2.1 points and the “Masking Component Intensity” value ([4]; 500 ppb added) was 2.3 points.
